{
  "sequences": {"note": "Amino acid sequences for entries named in this document (tags omitted). A change or cut given only in a name is not applied to a line headed by its entry.", "UniProt Q9NQV6": "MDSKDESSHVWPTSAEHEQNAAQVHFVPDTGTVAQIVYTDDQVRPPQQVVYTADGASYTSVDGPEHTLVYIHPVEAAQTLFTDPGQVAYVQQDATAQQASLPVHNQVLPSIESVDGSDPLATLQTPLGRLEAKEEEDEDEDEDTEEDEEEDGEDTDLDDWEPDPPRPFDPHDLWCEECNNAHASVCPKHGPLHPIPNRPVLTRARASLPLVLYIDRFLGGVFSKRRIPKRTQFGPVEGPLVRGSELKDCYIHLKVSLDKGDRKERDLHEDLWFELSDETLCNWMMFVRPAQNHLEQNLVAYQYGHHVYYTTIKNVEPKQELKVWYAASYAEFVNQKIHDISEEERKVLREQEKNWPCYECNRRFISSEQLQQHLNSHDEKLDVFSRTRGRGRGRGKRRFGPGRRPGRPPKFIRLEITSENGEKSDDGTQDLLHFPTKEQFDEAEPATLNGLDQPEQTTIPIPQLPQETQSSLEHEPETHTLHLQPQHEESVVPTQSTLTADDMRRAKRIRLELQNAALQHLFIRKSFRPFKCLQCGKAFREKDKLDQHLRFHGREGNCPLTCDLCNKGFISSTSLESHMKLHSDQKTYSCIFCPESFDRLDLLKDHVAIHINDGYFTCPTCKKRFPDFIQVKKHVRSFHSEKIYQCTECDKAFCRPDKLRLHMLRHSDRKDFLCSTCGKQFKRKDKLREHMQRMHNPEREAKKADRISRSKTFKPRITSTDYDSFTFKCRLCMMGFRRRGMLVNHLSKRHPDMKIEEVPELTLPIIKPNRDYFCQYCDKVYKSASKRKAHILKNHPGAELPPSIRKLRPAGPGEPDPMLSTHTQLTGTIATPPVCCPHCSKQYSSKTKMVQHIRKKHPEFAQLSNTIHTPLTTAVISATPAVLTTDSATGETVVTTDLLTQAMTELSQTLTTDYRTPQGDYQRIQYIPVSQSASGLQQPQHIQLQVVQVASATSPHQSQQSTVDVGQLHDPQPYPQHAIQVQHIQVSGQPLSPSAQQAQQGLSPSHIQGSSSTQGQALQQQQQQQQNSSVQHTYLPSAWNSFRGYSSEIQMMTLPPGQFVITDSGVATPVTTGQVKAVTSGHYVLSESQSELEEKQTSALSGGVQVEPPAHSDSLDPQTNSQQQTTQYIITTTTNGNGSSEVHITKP", "UniProt O60831": "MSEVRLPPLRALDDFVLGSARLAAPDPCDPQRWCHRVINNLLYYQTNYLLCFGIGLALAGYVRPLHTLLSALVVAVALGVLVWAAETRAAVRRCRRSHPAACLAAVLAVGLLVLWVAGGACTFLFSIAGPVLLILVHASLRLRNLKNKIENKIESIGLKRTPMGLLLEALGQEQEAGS", "UniProt Q9H2H8": "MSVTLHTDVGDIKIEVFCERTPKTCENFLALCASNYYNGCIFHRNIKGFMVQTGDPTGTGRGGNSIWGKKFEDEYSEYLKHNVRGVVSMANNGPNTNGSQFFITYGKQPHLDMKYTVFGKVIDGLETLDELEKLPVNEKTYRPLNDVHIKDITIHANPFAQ", "UniProt Q9Y2S7": "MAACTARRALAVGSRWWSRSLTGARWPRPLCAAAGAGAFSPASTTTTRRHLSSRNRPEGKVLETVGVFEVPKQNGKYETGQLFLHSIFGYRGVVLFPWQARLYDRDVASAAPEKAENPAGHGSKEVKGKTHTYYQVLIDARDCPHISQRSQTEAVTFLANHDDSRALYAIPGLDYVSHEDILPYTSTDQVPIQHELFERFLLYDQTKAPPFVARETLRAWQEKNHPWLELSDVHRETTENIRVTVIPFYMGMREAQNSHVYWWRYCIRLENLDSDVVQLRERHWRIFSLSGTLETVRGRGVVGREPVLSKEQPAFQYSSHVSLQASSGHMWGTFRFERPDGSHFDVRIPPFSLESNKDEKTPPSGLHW", "UniProt P62191": "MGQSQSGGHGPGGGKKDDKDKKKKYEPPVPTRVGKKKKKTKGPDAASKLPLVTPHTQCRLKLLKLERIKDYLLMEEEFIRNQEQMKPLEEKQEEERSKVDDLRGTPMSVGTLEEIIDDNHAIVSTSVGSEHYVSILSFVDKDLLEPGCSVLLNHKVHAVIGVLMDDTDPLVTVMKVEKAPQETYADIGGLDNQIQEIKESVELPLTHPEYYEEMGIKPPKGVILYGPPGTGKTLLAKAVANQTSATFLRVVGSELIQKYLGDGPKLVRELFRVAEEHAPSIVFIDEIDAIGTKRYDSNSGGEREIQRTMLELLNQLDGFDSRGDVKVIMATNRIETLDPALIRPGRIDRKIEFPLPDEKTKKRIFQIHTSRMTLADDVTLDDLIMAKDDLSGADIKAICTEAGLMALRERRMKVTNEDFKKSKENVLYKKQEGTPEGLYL", "UniProt Q9H307": "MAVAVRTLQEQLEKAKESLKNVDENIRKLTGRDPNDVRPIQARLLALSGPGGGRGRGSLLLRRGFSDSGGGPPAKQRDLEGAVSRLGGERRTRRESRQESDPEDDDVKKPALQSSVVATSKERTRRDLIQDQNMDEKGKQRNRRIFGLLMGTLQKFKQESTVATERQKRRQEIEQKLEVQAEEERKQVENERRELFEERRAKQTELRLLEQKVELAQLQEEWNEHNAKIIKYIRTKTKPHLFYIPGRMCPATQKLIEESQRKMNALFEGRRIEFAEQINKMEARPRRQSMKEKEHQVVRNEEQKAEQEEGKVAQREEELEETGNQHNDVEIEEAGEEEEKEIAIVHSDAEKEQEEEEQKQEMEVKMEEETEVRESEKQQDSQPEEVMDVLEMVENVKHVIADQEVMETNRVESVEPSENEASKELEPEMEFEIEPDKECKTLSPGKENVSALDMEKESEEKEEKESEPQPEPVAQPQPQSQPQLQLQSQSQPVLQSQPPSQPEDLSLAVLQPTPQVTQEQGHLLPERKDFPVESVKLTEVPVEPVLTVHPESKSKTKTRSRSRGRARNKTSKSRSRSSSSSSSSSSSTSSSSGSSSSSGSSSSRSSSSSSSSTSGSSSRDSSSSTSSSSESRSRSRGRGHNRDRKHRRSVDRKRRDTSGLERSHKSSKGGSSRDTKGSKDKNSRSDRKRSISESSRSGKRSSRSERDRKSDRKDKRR", "UniProt P28074": "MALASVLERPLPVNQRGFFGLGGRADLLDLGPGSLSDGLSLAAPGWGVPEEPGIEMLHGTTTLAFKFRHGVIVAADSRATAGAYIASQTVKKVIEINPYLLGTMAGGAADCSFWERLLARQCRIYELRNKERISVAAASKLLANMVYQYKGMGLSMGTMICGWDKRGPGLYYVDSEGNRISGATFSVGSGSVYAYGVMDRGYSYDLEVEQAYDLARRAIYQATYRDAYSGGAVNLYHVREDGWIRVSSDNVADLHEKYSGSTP", "UniProt Q969U7": "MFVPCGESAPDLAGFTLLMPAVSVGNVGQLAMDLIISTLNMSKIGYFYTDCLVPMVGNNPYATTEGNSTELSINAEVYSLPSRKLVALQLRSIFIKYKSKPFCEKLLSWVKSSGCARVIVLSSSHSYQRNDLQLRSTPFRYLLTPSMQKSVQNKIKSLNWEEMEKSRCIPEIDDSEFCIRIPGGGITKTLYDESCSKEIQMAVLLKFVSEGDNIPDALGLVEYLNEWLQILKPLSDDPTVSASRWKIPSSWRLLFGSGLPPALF", "UniProt O60678": "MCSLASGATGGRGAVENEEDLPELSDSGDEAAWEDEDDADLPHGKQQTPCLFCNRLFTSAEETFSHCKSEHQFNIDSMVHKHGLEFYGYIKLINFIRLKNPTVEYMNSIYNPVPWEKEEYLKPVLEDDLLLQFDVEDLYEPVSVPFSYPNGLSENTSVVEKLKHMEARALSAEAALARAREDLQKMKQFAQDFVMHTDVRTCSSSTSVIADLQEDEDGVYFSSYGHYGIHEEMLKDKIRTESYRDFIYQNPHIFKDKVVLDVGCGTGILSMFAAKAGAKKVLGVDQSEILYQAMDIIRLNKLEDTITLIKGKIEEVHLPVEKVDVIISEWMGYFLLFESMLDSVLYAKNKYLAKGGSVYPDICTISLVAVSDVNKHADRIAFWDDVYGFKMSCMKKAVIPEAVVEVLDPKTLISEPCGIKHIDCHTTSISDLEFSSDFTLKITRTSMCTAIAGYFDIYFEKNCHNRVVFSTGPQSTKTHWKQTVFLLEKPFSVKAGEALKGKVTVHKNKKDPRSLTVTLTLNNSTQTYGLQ", "UniProt P36873, whole entry, looked up": "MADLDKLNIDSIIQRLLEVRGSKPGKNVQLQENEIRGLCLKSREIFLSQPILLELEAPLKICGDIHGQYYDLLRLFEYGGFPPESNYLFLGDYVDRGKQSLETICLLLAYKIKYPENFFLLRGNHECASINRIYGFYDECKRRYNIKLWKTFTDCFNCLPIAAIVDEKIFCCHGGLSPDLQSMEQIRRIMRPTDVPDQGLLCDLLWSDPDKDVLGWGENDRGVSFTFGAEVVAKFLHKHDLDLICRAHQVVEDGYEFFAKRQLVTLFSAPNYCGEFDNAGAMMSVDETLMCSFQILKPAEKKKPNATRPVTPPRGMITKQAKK", "UniProt Q15008": "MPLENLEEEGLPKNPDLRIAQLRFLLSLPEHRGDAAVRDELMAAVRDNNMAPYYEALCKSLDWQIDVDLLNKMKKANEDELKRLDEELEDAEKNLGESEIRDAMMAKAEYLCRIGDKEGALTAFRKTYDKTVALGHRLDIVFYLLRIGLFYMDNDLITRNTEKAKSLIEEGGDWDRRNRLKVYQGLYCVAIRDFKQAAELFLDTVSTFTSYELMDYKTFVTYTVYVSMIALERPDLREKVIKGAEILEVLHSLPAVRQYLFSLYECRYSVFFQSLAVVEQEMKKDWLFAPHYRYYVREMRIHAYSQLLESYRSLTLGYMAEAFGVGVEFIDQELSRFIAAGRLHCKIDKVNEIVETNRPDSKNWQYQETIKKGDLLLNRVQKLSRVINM", "UniProt Q96QC0": "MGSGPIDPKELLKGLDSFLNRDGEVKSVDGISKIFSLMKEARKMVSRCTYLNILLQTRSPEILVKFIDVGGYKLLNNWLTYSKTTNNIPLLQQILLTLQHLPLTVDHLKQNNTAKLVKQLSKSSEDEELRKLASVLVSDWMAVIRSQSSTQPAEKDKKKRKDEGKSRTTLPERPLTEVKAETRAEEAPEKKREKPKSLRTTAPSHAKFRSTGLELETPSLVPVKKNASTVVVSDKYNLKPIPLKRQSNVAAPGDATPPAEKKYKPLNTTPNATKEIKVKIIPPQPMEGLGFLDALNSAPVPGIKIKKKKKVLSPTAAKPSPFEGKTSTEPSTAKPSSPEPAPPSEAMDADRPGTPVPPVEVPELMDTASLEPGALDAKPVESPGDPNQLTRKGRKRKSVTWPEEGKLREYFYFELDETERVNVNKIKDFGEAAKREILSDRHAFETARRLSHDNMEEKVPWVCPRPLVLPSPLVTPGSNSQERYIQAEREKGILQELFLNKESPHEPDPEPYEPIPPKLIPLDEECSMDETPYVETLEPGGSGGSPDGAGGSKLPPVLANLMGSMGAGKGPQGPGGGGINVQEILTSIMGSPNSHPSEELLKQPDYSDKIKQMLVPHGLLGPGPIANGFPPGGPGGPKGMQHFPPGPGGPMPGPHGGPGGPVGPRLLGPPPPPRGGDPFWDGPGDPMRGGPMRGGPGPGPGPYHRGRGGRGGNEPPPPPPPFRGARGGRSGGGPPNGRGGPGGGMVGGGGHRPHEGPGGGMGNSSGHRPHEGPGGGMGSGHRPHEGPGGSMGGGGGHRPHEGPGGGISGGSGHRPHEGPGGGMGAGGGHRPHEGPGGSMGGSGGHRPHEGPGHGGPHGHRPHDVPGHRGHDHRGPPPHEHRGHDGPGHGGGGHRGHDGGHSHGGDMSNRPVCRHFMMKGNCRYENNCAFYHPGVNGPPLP", "UniProt O75439": "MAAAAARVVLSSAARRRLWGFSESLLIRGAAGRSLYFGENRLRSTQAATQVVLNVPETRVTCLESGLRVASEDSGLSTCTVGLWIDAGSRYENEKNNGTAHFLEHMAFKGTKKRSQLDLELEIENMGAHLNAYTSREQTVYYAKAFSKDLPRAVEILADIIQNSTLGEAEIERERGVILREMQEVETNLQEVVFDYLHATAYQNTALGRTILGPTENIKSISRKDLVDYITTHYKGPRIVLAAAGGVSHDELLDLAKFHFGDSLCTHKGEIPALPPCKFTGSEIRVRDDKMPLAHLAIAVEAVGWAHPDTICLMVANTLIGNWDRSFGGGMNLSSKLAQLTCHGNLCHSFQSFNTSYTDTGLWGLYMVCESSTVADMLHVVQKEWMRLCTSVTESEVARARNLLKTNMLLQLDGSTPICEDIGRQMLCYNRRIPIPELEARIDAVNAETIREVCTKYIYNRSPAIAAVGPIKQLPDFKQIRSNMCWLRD", "UniProt P62136, whole entry": "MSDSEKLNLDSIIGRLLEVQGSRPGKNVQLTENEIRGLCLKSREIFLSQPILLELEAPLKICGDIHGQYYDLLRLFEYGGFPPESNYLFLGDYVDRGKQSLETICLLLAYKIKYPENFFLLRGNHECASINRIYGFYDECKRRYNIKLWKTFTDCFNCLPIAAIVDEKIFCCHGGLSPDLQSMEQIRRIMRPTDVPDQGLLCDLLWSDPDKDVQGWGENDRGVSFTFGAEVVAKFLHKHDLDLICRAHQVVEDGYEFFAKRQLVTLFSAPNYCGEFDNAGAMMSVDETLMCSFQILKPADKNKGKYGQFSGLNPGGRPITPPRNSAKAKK"},
  "source": "the supplement of paper PMC7666118",
  "note": "The list shows a part of the results.",
  "data": [
    {"compound": "COc1ccc(Cn2ccc3cc(C)c(C(=O)NO)cc32)cc1", "experiment": "dose-dependent thermal stabilisation call (2D-TPP, DLPTP, 10% FDR) (binary (1 = stabilised)); higher = stabilised by the compound", "settings": "system: HL-60 intact cells; concentration range 0.04-10 µM", "protocol": "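2D thermal proteome profiling in intact HL-60 cells treated with BRD-3811 (0, 0.04, 0.29, 2, 10 uM) for 90 min at 37 C, then heated 3 min at one of 12 temperatures (42-63.9 C). Soluble protein was quantified by TMT10 MS. The value is the DLPTP call of the paper: dose-dependent thermal stabilisation over all temperatures at 10% FDR (F-test of a dose-response against a flat model); one experiment, one call per tested protein.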", "values": [
      {"target": "PRDM10 (UniProt Q9NQV6)", "dose-dependent thermal stabilisation call": "inactive: 0"},
      {"target": "PPT1 (UniProt P50897)", "dose-dependent thermal stabilisation call": "inactive: 0"},
      {"target": "PPP2R4 (UniProt Q15257)", "dose-dependent thermal stabilisation call": "inactive: 0"},
      {"target": "POLR3K (UniProt Q9Y2Y1)", "dose-dependent thermal stabilisation call": "inactive: 0"},
      {"target": "PLXNB1 (UniProt O43157)", "dose-dependent thermal stabilisation call": "inactive: 0"},
      {"target": "PRAF2 (UniProt O60831)", "dose-dependent thermal stabilisation call": "inactive: 0"},
      {"target": "PPP2R2D (UniProt Q66LE6)", "dose-dependent thermal stabilisation call": "inactive: 0"},
      {"target": "PPIL3 (UniProt Q9H2H8)", "dose-dependent thermal stabilisation call": "inactive: 0"},
      {"target": "PRMT5 (UniProt O14744)", "dose-dependent thermal stabilisation call": "inactive: 0"},
      {"target": "PSMD14 (UniProt O00487)", "dose-dependent thermal stabilisation call": "inactive: 0"},
      {"target": "POMP (UniProt Q9Y244)", "dose-dependent thermal stabilisation call": "inactive: 0"},
      {"target": "PRKCSH (UniProt P14314)", "dose-dependent thermal stabilisation call": "inactive: 0"},
      {"target": "PPCDC (UniProt Q96CD2)", "dose-dependent thermal stabilisation call": "inactive: 0"},
      {"target": "POLDIP2 (UniProt Q9Y2S7)", "dose-dependent thermal stabilisation call": "inactive: 0"},
      {"target": "PSMC1 (UniProt P62191)", "dose-dependent thermal stabilisation call": "inactive: 0"},
      {"target": "PNN (UniProt Q9H307)", "dose-dependent thermal stabilisation call": "inactive: 0"},
      {"target": "PTCD1 (UniProt O75127)", "dose-dependent thermal stabilisation call": "inactive: 0"},
      {"target": "POLR2I (UniProt P36954)", "dose-dependent thermal stabilisation call": "inactive: 0"},
      {"target": "PSMB5 (UniProt P28074)", "dose-dependent thermal stabilisation call": "inactive: 0"},
      {"target": "PPP1R14B (UniProt Q96C90)", "dose-dependent thermal stabilisation call": "inactive: 0"},
      {"target": "PSME2 (UniProt Q9UL46)", "dose-dependent thermal stabilisation call": "inactive: 0"},
      {"target": "PSMG2 (UniProt Q969U7)", "dose-dependent thermal stabilisation call": "inactive: 0"},
      {"target": "PRMT3 (UniProt O60678)", "dose-dependent thermal stabilisation call": "inactive: 0"},
      {"target": "PTBP1 (UniProt P26599)", "dose-dependent thermal stabilisation call": "inactive: 0"},
      {"target": "PSMD10 (UniProt O75832)", "dose-dependent thermal stabilisation call": "inactive: 0"},
      {"target": "PPP1CC (UniProt P36873)", "dose-dependent thermal stabilisation call": "inactive: 0"},
      {"target": "PTPN23 (UniProt Q9H3S7)", "dose-dependent thermal stabilisation call": "inactive: 0"},
      {"target": "PTPN7 (UniProt P35236)", "dose-dependent thermal stabilisation call": "inactive: 0"},
      {"target": "PRPF19 (UniProt Q9UMS4)", "dose-dependent thermal stabilisation call": "inactive: 0"},
      {"target": "PTCD3 (UniProt Q96EY7)", "dose-dependent thermal stabilisation call": "inactive: 0"},
      {"target": "PODXL (UniProt O00592)", "dose-dependent thermal stabilisation call": "inactive: 0"},
      {"target": "PTGR2 (UniProt Q8N8N7)", "dose-dependent thermal stabilisation call": "inactive: 0"},
      {"target": "POLR3G (UniProt O15318)", "dose-dependent thermal stabilisation call": "inactive: 0"},
      {"target": "PSMD6 (UniProt Q15008)", "dose-dependent thermal stabilisation call": "inactive: 0"},
      {"target": "PRTN3 (UniProt P24158)", "dose-dependent thermal stabilisation call": "inactive: 0"},
      {"target": "PPP1R10 (UniProt Q96QC0)", "dose-dependent thermal stabilisation call": "inactive: 0"},
      {"target": "PMPCB (UniProt O75439)", "dose-dependent thermal stabilisation call": "inactive: 0"},
      {"target": "PROSC (UniProt O94903)", "dose-dependent thermal stabilisation call": "inactive: 0"},
      {"target": "PPP1CA (UniProt P62136)", "dose-dependent thermal stabilisation call": "inactive: 0"},
      {"target": "PNPLA8 (UniProt Q9NP80)", "dose-dependent thermal stabilisation call": "inactive: 0"}
    ]}
  ]
}
